According to patent US20210340217A1, “NOVEL PEPTIDES AND COMBINATION OF PEPTIDES FOR USE IN IMMUNOTHERAPY AGAINST OVARIAN CANCER AND OTHER CANCERS” (Immatics Biotechnologies GmbH, priority 2017, published 2021):

System: ovarian cancer tissue samples
Test: Identification of tumor associated peptides presented on the cell surface (HLA immunoprecipitation, LC-MS); presentation across tumor types
Design: species or system human
Conditions: tumor types on which the peptide was found presented (HLA immunoprecipitation, LC-MS); abbreviations in table footnote

Row | Substance | Peptide Presentation on tumor types
1 | 418 (FEDAQGHIW; listed as Homo sapiens) [compound 418] | BRCA, CCC, CRC, HCC, NSCLC, OSCAR, PACA, UBC, UEC
2 | 616 (TVAEVQKLLGPHVEG; listed as Homo sapiens) [compound 616] | NSCLC
3 | 113 (QLDSNRLTY; listed as Homo sapiens) [compound 113] | HCC
4 | 594 (VRGEVAPDAKSFVLN; listed as Homo sapiens) [compound 594] | NSCLC, RCC
5 | 10 (RYSDSVGRVSF; listed as Homo sapiens) [compound 10] | BRCA, CRC, GBC, GC, NSCLC, SCLC, UBC, UEC
6 | 599 (AESLFREALSNKVDE; listed as Homo sapiens) [compound 599] | NSCLC
7 | 322 (SPDPSKHLL; listed as Homo sapiens) [compound 322] | NHL, NSCLC, PRCA, RCC
8 | 495 (EVPSGATTEVSR; listed as Homo sapiens) [compound 495] | UEC
9 | 150 (MAAVKQAL; listed as Homo sapiens) [compound 150] | CCC, NSCLC, PACA
10 | 376 (RPRSPAGQVA; listed as Homo sapiens) [compound 376] | PACA
11 | 56 (SEPDTTASW; listed as Homo sapiens) [compound 56] | NSCLC, UEC
12 | 81 (VYNHTTRPL; listed as Homo sapiens) [compound 81] | OSCAR
13 | 225 (SVFAHPRKL; listed as Homo sapiens) [compound 225] | BRCA, OSCAR
14 | 191 (EEDAALFKAW; listed as Homo sapiens) [compound 191] | AML, BRCA, CCC, CLL, CRC, GC, HCC, HNSCC, MEL, NHL, NSCLC, OSCAR, PACA, PRCA, RCC, SCLC, UBC, UEC
15 | 291 (ETIRSVGYY; listed as Homo sapiens) [compound 291] | GBM, NSCLC, UBC
16 | 40 (KPGTSYRVTL; listed as Homo sapiens) [compound 40] | GBM
17 | 227 (YTFRYPLSL; listed as Homo sapiens) [compound 227] | CCC, CRC, GBC, GC, HCC, HNSCC, NSCLC, OSCAR, PACA, SCLC, UBC, UEC
18 | 24 (SMYYPLQLK; listed as Homo sapiens) [compound 24] | BRCA, CRC, GBM, HCC, NHL, RCC
19 | 443 (GTFNPVSLW; listed as Homo sapiens) [compound 443] | BRCA, GBC, GBM, HNSCC, MEL, NHL, NSCLC, OSCAR, PACA, SCLC
20 | 182 (KEATEAQSL; listed as Homo sapiens) [compound 182] | NSCLC
21 | 420 (FESHSTVSA; listed as Homo sapiens) [compound 420] | UEC
22 | 57 (QESDLRLFL; listed as Homo sapiens) [compound 57] | BRCA, CLL, CRC, GC, GEJC, HNSCC, NHL, NSCLC, PACA, UBC, UEC
23 | 482 (GRWEKTDLTYR; listed as Homo sapiens) [compound 482] | HNSCC, NSCLC, OSCAR, PACA, SCLC, UEC
24 | 330 (FPFVTGSTEM; listed as Homo sapiens) [compound 330] | UEC
25 | 634 (DALRGLLPVLGQPIIRS; listed as Homo sapiens) [compound 634] | NSCLC
26 | 141 (SPMTSLLTSGL; listed as Homo sapiens) [compound 141] | UEC
27 | 35 (FPDNQRPAL; listed as Homo sapiens) [compound 35] | BRCA, CRC, GBC, MEL, NSCLC, PACA, UBC, UEC
28 | 85 (VLLGSLFSRK; listed as Homo sapiens) [compound 85] | AML, CRC, HCC, MEL, NHL, NSCLC, RCC, UEC
29 | 407 (AEHEGVSVL; listed as Homo sapiens) [compound 407] | NSCLC, UEC
